# Experimental data reported in PubChem BioAssay AID2685 (National Center for Advancing Translational Sciences (NCATS), 2010).
# This is one part of the list. The main result of the screen is listed elsewhere. These columns were measured beside it and carry no call. Most of these compounds were active or inconclusive in the main read-out, so they are no random draw. Potencies come from curve fits of mixed quality, noted in brackets.
# Assay: qHTS Assay for Lipid Storage Modulators in Drosophila S3 Cells;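 on cell number change: cells counted by Cell Tracker Red CMTPX staining in the red channel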
# Settings: BODIPY lipid droplet fluorescence, 18-24 h; for cell number change: measured here: cell count max response, cells fed with added oleic acid
# How it was run: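 Laser-scanning cytometry quantifies lipid droplet accumulation (500–530 nm total intensity; droplet/cell object ratio) in oleic acid-fed (400 uM added) Drosophila S3 cells treated with a concentration series. 20 uM Triacsin C defined 100% inhibition.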
# [1] = measured here: lipid fluorescence (Fed channel) AC50, cells fed with added oleic acid
# [2] = measured here: cell number channel AC50, cells fed with added oleic acid
Compound,cell number change [%],AC50 [1],AC50 [2]
O=C(c1ccc2c(c1)CCN2S(=O)(=O)c1ccccc1)N1CCN(c2ccccc2)CC1,-2.75,"0.116 µM [rising, full curve, poor fit]",–
O=C(NCCCN1CCCC1=O)c1cccc(S(=O)(=O)Nc2ccc(Br)cc2)c1,80,–,"29.1 µM [rising, single point]"
COc1ccc(CNCCC(c2ccc(OC(C)C)cc2)c2ccccc2OC)cc1 (stereo not given),-60.4,"32.6 µM [falling, partial curve, poor fit]","13 µM [falling, partial curve]"
CC1=NN(c2cccc(F)c2)C(=O)/C1=C/c1ccc(N(C)C)cc1,-22.2,"0.366 µM [falling, partial curve, poor fit]",–
COCCN(C(=O)CSc1nc(-c2ccccc2)cn1N)c1c(N)n(Cc2ccccc2)c(=O)[nH]c1=O,33.1,–,"8.2 µM [rising, partial curve, poor fit]"
Nc1nnc(CC2=CCCCC2)s1,–,"1.64 µM [falling, partial curve]",–
O=c1[nH]ncc(N/N=C\c2ccncc2)c1Cl,31,–,"6.51 µM [rising, single point]"
COc1ccc(OC)c(C(=O)COC(=O)COc2ccccc2F)c1,11.5,–,–
Cc1cc2nc3n(c2cc1C)CC1CC(C(=O)NCc2cccc(C(F)(F)F)c2)N(C)C31 (stereo not given),4.09,"13 µM [rising, single point]",–
COC(=O)c1ccccc1NC(=O)Cn1cc2c(n1)CCC(C)C2 (stereo not given),15.1,"18.4 µM [rising, partial curve, poor fit]",–
COc1ccc(S(=O)(=O)N2CCC(C(=O)N3CCOCC3)CC2)cc1Cl,-17.6,"16.4 µM [falling, single point]","3.66 µM [falling, single point]"
Cc1cc(N/N=C/c2ccc(F)cc2)nc(NCc2ccccc2)n1,-69.7,–,"29.1 µM [falling, single point]"
N#Cc1ccc(C(c2nnnn2Cc2ccccc2)N2CCCC2)cc1 (stereo not given),-18.1,"0.116 µM [falling, full curve, poor fit]",–
CC(C)(C)C1CCC(OC(=O)c2ccncc2)CC1 (stereo not given),-4.36,–,"0.517 µM [falling, single point]"
CC(=O)N1CCN(c2ccc(NC(=S)NC(=O)c3ccc(C)c([N+](=O)[O-])c3)cc2)CC1,-4.61,"29.1 µM [falling, single point]",–
CN(c1ccccc1C(=O)Nc1cccnc1)S(C)(=O)=O,0.255,–,–
COc1ccc(C(=O)n2c(-c3ccco3)nc3ccccc32)cc1,-26.9,"29.1 µM [falling, single point]",–
Cn1c2ccccc2c2cc(C(=O)N3CCN(CCO)CC3)sc21,41.5,–,"29.1 µM [rising, single point]"
Cc1ccc(N2C(=O)[C@@H]3[C@H](C2=O)C2c4ccccc4C=NN2[C@@H]3C(=O)c2ccc(Cl)cc2)cc1 (stereo not given in full),-17.8,–,–
CCCOc1cc(NCc2ccccc2)c2ncn(C(C)C)c2c1,-70.2,–,"13 µM [falling, partial curve]"
CC(=O)Nc1ccc(NC(=O)COC(=O)C2(c3ccc(Cl)cc3)CCCC2)cc1,13.3,"20.6 µM [rising, single point]",–

Compound,cell number change [%],AC50 [1],AC50 [2]
Cc1ccc(Sc2ncccc2C(=O)N(C)Cc2cccs2)c(C)c1,-16.2,"29.1 µM [rising, single point]","0.651 µM [falling, full curve]"
CCCC(C)NC(=O)CSc1nc(-c2ccccc2)cn1N (stereo not given),–,"6.51 µM [rising, single point]",–
N#Cc1ccc(-c2cccnc2)nc1SCC(=O)Nc1sc2c(c1C#N)CCC2,-76.8,–,"0.731 µM [rising, partial curve, poor fit]"
O=C(O)C1C2C=CC(C2)C1C(=O)NCCCn1ccnc1 (stereo not given),–,"0.731 µM [falling, single point]","0.517 µM [falling, single point]"
COC(=O)c1ccc(C(=O)OC)c(NC(=S)N2CCC(N3CCCCC3)CC2)c1,–,"0.82 µM [rising, full curve]",–
CCCn1c(NCc2c[nH]c3ccccc23)nc2ccccc21,–,"0.0326 µM [falling, full curve, poor fit]","5.17 µM [falling, single point]"
O=C(c1ccc(OC2CCN(CCc3ccccc3)CC2)cc1)N1CCC(CO)CC1,–,"6.51 µM [falling, single point]",–
CCCCCCCCCCOC(=O)Cn1c(COc2cccc(OC)c2)[n+](C)c2ccccc21,-69.3,"10.3 µM [falling, partial curve]","11.6 µM [falling, partial curve]"
CC(C)c1c(C(=O)N/N=C/c2cccc3ccccc23)nnn1-c1nonc1N,-13.3,"6.51 µM [falling, single point]",–
COc1cc(C)c(CN2CCN(C(C)C(=O)NC(C)c3ccccc3)CC2)cc1OC (stereo not given),-15.8,–,–
CCNc1nc(SCc2ccccc2)nc(N2CCOCC2)n1,-1.65,"1.64 µM [rising, full curve]",–
CC(C)C[C@H](NC(=O)c1[nH]cnc1C(=O)N[C@@H](C)C(=O)OCc1ccccc1)C(=O)OC(C)(C)C,14.7,"2.59 µM [falling, partial curve, poor fit]",–
Cn1c(=O)[nH]c2cc(Cl)cnc21,6.92,–,–
COC(=O)c1cc(CN2CCN(c3ccccc3C)CC2)ccc1O,17.4,"29.1 µM [rising, single point]",–
CCOC(=O)C1CCN(C(=O)Cc2c(C(=O)O)[nH]c3ccccc23)CC1,18.7,"0.00461 µM [falling, full curve, poor fit]",–
COc1cc(CCC(=O)Nc2nnc(C)s2)cc(OC)c1OC,-4.35,"0.58 µM [rising, single point]",–
C/C=C(\NC(C)=O)c1ccccc1,-15.1,–,–
CCOc1cc(S(=O)(=O)Nc2ccc(CC)cc2)ccc1Cl,-91.2,–,"29.1 µM [falling, single point]"
CCCCNC(=O)n1c(SC)nc2ccccc21,-117,–,"4.61 µM [falling, full curve]"
COc1cccc(N=C(N)N)c1,24.2,"0.651 µM [falling, single point]",–
COc1ccc(/C=C/C(=O)NC(=S)N2CCN(c3ccccn3)CC2)cc1,5.87,–,"0.116 µM [rising, full curve, poor fit]"

Compound,cell number change [%],AC50 [1],AC50 [2]
Cc1ccccc1S(=O)(=O)Cc1ccc(C(=O)NCc2cccs2)o1,143,"1.64 µM [rising, full curve]","5.8 µM [rising, partial curve]"
CCc1ccccc1OCC(=O)NNCC(=O)Nc1cccc(C#N)c1,-1.69,"18.4 µM [rising, single point]",–
CC(NC(=O)C1CCN(C(=O)Nc2ccccc2)CC1)c1ccc(Cl)cc1 (stereo not given),6.37,"6.51 µM [falling, single point]",–
CCc1cccc2c(C(=O)COC(=O)c3c(C)noc3C)c[nH]c12,-20.2,–,–
Cc1cc([N+](=O)[O-])nn1CC(=O)Nc1ccc(Cc2ccncc2)cc1,32.4,"8.2 µM [rising, partial curve]","5.17 µM [rising, partial curve]"
CC1(c2ccc(Cl)cc2)NC(=O)N(CC(=O)NCCC2=CCCCC2)C1=O (stereo not given),-8.65,"29.1 µM [falling, single point]",–
CN1C(=O)C2(c3ccccc31)C1CCCC=C1C(C#N)=C(N)C2(C#N)C#N (stereo not given),-25.6,"0.164 µM [rising, full curve, poor fit]",–
CCCCCN(C(=O)CN(C)Cc1ccc(OC)cc1OC)c1c(N)n(CCCC)c(=O)[nH]c1=O,–,"2.06 µM [falling, single point]",–
CCN1C(=O)C(Cc2nc3ccccc3c(=O)n2C)c2ccccc21 (stereo not given),1.63,"23.1 µM [rising, partial curve]",–
Cc1cc(CNC(=O)CCc2nnc(CCCc3ccccc3)o2)nn1C,26.3,–,–
CCCN(CCC)CCNC(=O)c1cc2c(=O)n(CC)c3ccccc3c2s1,18.6,"0.291 µM [rising, partial curve]",–
O=C(NCc1ccc2c(c1)OCO2)C(=O)NCC1OCCN1S(=O)(=O)c1ccc(Cl)cc1 (stereo not given),36,–,"25.9 µM [rising, partial curve, poor fit]"
CS(=O)(=O)c1ccccc1C(=O)NCCC(c1ccccc1)c1ccccc1,-22.9,–,–
COc1ccccc1C(CCNCc1ccccc1)c1ccc(OC(C)C)cc1 (stereo not given),-64.1,"29.1 µM [falling, single point]","18.4 µM [falling, partial curve]"
Cc1ccc(NC(=O)CCC(=O)N2CCC(C)CC2)c([N+](=O)[O-])c1,37.6,–,"29.1 µM [rising, single point]"
Cc1cc(C)nc(NC(=O)COc2cc(Cl)cc(Cl)c2)n1,4.41,"16.4 µM [falling, single point]",–
COc1ccc(N(C(=O)CCl)C(C(=O)NCCc2ccccc2)c2cccs2)cc1 (stereo not given),-18.7,"29.1 µM [falling, single point]",–
O=S(=O)(NC1=NCCCCC1)c1ccccc1Cl,-26.5,"4.11 µM [falling, partial curve, poor fit]",–
Cc1c(NC(=O)c2cc(=O)[nH]c3ccccc23)c(=O)n(-c2ccccc2)n1C,9.15,"6.51 µM [falling, single point]",–

# 3 entries picked at random from those above:
Compound,cell number change [%],AC50 [1],AC50 [2]
CCOC(=O)C1CCN(C(=O)Cc2c(C(=O)O)[nH]c3ccccc23)CC1,18.7,"0.00461 µM [falling, full curve, poor fit]",–
Nc1nnc(CC2=CCCCC2)s1,–,"1.64 µM [falling, partial curve]",–
CCc1ccccc1OCC(=O)NNCC(=O)Nc1cccc(C#N)c1,-1.69,"18.4 µM [rising, single point]",–

# As a short view, part of the list above:
Compound,cell number change [%],AC50 [1],AC50 [2]
CCCN(CCC)CCNC(=O)c1cc2c(=O)n(CC)c3ccccc3c2s1,18.6,"0.291 µM [rising, partial curve]",–
O=C(NCc1ccc2c(c1)OCO2)C(=O)NCC1OCCN1S(=O)(=O)c1ccc(Cl)cc1 (stereo not given),36,–,"25.9 µM [rising, partial curve, poor fit]"
